# Values of other authors in patent US20250320397A1, “NON-PFAS REFRIGERANTS AND METHODS OF COOLING ELECTRONICS” (Honeywell International Inc., priority 2024, published 2025).
# At least one structure is not confirmed: it was looked up by name or label, or the drawing left a doubt.
# Details: cited from earlier work
compound,measurement,value
COC(F)(F)C(F)(F)C(F)(F)F [HFE7000],dielectric constant,7.4
